PMC11148184
No constants are given. Whether binding was seen depends on the method and setting. In cells and extracts the contact can be indirect. Here binding means that the protein was enriched with, or labelled near, the bait; the list need not be complete.

Amino acid sequences for entries named in this document (tags omitted).
UniProt Q6P3S6: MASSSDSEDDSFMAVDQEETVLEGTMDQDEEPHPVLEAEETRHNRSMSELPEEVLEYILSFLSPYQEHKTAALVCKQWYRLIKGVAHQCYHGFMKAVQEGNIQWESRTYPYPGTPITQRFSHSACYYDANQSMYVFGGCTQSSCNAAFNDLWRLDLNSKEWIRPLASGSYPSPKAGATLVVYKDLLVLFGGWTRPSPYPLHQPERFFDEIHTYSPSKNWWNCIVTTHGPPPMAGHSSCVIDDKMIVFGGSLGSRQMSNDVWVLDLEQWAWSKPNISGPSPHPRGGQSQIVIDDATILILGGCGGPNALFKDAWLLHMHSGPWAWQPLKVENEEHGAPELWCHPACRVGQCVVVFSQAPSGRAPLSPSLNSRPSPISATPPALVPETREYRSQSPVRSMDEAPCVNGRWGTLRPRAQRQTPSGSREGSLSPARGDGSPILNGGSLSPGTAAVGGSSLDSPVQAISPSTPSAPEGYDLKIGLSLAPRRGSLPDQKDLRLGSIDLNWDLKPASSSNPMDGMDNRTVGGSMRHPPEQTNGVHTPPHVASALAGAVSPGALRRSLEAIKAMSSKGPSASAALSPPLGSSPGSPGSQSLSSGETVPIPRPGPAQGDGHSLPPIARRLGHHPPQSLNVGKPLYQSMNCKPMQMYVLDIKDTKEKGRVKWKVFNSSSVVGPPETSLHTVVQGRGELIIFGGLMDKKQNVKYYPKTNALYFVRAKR

Biological target: BirA*-tagged FBXO42 (F-Box Protein 42), full-length human (human) (UniProt Q6P3S6)
Assay: proximity labelling; BioID: BirA*-tagged bait induced in HEK293 Flp-In T-REx cells, 50 uM biotin for 24 h, with or without 5 uM MG132; streptavidin-Sepharose purification and mass spectrometry

B1: CCDC6 (prey in HEK293 BioID) (protein, UniProt Q16204 1-474)
chain: MADSASESDTDGAGGNSSSSAAMQSSCSSTSGGGGGGGGGGGGGKSGGIVISPFRLEELTNRLASLQQENKVLKIELETYKLKCKALQEENRDLRKASVTIQARAEQEEEFISNTLFKKIQALQKEKETLAVNYEKEEEFLTNELSRKLMQLQHEKAELEQHLEQEQEFQVNKLMKKIKKLENDTISKQLTLEQLRREKIDLENTLEQEQEALVNRLWKRMDKLEAEKRILQEKLDQPVSAPPSPRDISMEIDSPENMMRHIRFLKNEVERLKKQLRAAQLQHSEKMAQYLEEERHMREENLRLQRKLQREMERREALCRQLSESESSLEMDDERYFNEMSAQGLRPRTVSSPIPYTPSPSSSRPISPGLSYASHTVGFTPPTSLTRAGMSYYNSPGLHVQHMGTSHGITRPSPRRSNSPDKFKRPTPPPSPNTQTPVQPPPPPPPPPMQPTVPSAATSQPTPSQHSAHPSSQP
B1 was tested, and the binding was “binds”.
